# From PubChem BioAssay AID493014 (National Center for Advancing Translational Sciences (NCATS), 2011)
# This is one part of the list. Further columns of the screen follow, without active or inactive calls. Compounds called inactive in the main read-out are mostly missing here. Potencies come from curve fits of mixed quality, noted in brackets.
# Test: qHTS Assay to Find Inhibitors of Chronic Active B-Cell Receptor Signaling
# Details: ABC-DLBCL IkBa-CBG/CBR reporter, luminescence ratio (green luciferase fused to IkBa over red control in TMD8 lymphoma cells), 4 h
# Summary of the method: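 TMD8 ABC-DLBCL cells carrying doxycycline-inducible green luciferase fused to IkappaBalpha plus unfused red luciferase were exposed to compounds (up to 46 uM) for 4 hrs at 37C. Activity came from the overlap-corrected green/red luminescence ratio.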
# [1] = measured here: CBR red luminescence, cell number
# [2] = measured here: IkBa-CBG green luminescence
SMILES,AC50 [1],AC50 [2]
Cc1cccc(C)c1NC(=O)COC(=O)CN1C(=O)C2CCCCC2C1=O (stereo not drawn),"14.6 µM [rising, partial curve]",–
CCn1c2ccccc2c2c3ncc4cccn4c3ccc21,"12.6 µM [rising, partial curve, poor fit]",–
CN1CCN(c2ccccc2NC(=O)c2ccc(OCc3ccccc3)cc2)CC1,"16.4 µM [falling, single point]",–
O=C(O)CCn1c2ccccc2c2nc3ccccc3nc21,–,"1 µM [rising, full curve, poor fit]"
CC(C)[C@H](NC(=O)N1c2ccccc2NC(=O)[C@@H]1C(C)C)C(=O)N[C@H](Cc1ccccc1)C(=O)O,"17.8 µM [falling, single point]",–
Cc1c(C(=O)N2CCNCC2)oc2ccccc12,"22.4 µM [falling, single point]",–
O=C(N/N=C/c1ccc([N+](=O)[O-])cc1)c1cccs1,"14.1 µM [falling, partial curve, poor fit]",–
CC(=O)Nc1ccc(S(=O)(=O)NC2=NCN(CCOC(=O)c3ccccc3)CN2)cc1,"0.0651 µM [rising, full curve, poor fit]",–
COc1ccccc1C(CNc1nc(C(F)(F)F)nc2ccccc12)N(C)C (stereo not drawn),"11.2 µM [falling, partial curve, poor fit]",–
CC(C)(C)OC(=O)NC(Cc1ccccc1)C(=O)O (stereo not drawn),"15.8 µM [falling, single point]",–
Cc1ccc(N(C)C(=O)N2CCN(S(=O)(=O)c3ccc(C)cc3)CC2)cc1,"1.84 µM [falling, single point]",–
Cc1cc(/C=N/Nc2ccc([N+](=O)[O-])cn2)c(C)n1-c1cccc(C(=O)O)c1,"22.4 µM [rising, single point]",–
COc1ccccc1OCC(O)Cn1c(=N)n(CCN2CCCCC2)c2ccccc21 (stereo not drawn),"0.731 µM [falling, full curve, poor fit]",–
O=C(c1ccccc1)c1cccc(NC(=O)C2CC2)c1,"29.1 µM [rising, single point]",–
COc1ccc(/C=N/Nc2ncc(C(F)(F)F)cc2Cl)cc1OC,"3.66 µM [rising, full curve, poor fit]",–
COc1ccc(Cc2nc(-c3ccccc3)no2)cc1,"0.461 µM [rising, full curve, poor fit]",–
COc1ccc(C(=O)CCNc2ccc(F)cc2)cc1,"2.82 µM [rising, partial curve, poor fit]",–
Cc1ccc2nc(SCC(=O)c3c(N)n(C4CC4)c(=O)[nH]c3=O)[nH]c2c1,"16.4 µM [rising, single point]",–
Cc1ccc2nc(Cl)c3nnnn3c2c1,"2.24 µM [falling, partial curve, poor fit]",–
Cc1ccccc1NC(=O)c1nc2nccc(C)n2n1,"35.5 µM [falling, single point]",–
Cn1cnnc1SCC(=O)Nc1ccc(F)cc1F,"6.31 µM [falling, full curve, poor fit]",–

SMILES,AC50 [1],AC50 [2]
COc1ccc2cc(C3(C)NC(=O)N(CC(=O)NCCC4=CCCCC4)C3=O)ccc2c1 (stereo not drawn),"0.092 µM [falling, full curve, poor fit]",–
O=C(Nc1nc(-c2ccccc2)cs1)c1ccco1,"7.94 µM [falling, partial curve]",–
Cc1ccc(S(=O)(=O)NC(=O)c2cccc(C)c2)cc1,"5.62 µM [rising, partial curve]",–
O=C1CC(c2ccc(F)cc2)Cc2nc(NCC3CCCO3)ncc21 (stereo not drawn),"4.47 µM [rising, full curve, poor fit]",–
COc1ccc(CNCc2c(O)c(Cl)cc3c(C)c(C)c(=O)oc23)c(OC)c1,"0.447 µM [rising, full curve, poor fit]",–
COc1cc(C)nc2nc(SCc3ccccc3)nn12,"1.12 µM [rising, partial curve, poor fit]",–
O=C(O)c1ccc2nc(-c3cc4cccc(O)c4oc3=O)[nH]c2c1,"0.1 µM [falling, full curve, poor fit]",–
CC1(C)NC(=O)N(CC(O)COc2ccccc2C(=O)Nc2ccccc2)C1=O (stereo not drawn),"3.66 µM [falling, single point]","4.11 µM [rising, partial curve, poor fit]"
O=C(O)c1cccc(Nc2ncnc3c2cnn3-c2ccccc2)c1,"3.66 µM [falling, full curve]",–
CCOC(=O)C1CCN(S(=O)(=O)c2cc(Cl)c(C)cc2OC)CC1,"4.11 µM [falling, single point]","3.66 µM [rising, partial curve, poor fit]"
CC(C)c1nc2oc3ccccc3c(=O)c2c(=O)n1-c1ccccc1,"0.316 µM [falling, full curve]",–
O=C(CSc1nc2c(sc3ccccc32)c(=O)n1Cc1ccco1)NCC1CCCO1 (stereo not drawn),"32.6 µM [falling, partial curve, poor fit]",–
CC(C)CCn1c(Sc2nc3ccccc3o2)nc2c1c(=O)[nH]c(=O)n2C,"7.31 µM [falling, partial curve]",–
CC(C)COc1ccc(C(=O)OCC(=O)NCc2cccs2)cc1,–,"18.4 µM [falling, single point]"
CC1CC(C)CN(C(=O)COC(=O)/C=C/c2ccco2)C1 (stereo not drawn),"29.1 µM [rising, single point]",–
Cc1ccccc1NC(=S)N(CCc1c(C)[nH]c2ccc(F)cc12)Cc1cccnc1,"35.5 µM [falling, single point]",–
Cn1c2c(c(=O)n(C)c1=O)CN(Cc1ccc3c(c1)OCO3)CN2,"0.326 µM [falling, full curve, poor fit]",–
CCOc1cc(/C=C/C(=O)c2ccc(OC)c(CN3CCOCC3)c2)cc(Br)c1O,"35.5 µM [falling, single point]",–
CCN(CC)C(=O)[C@H]1C[C@H](CC(=O)NCCCOC)C(=O)N2CCc3c([nH]c4cc(CCC(=O)N(C)C)ccc34)[C@]12C,"29.1 µM [rising, single point]",–
O=C(CSc1nc2ccccc2c(=O)n1-c1ccc(F)cc1F)Nc1ccc(N2CCOCC2)cc1,"4.61 µM [falling, single point]",–
O=C(OCc1nnc(-c2ccccc2)o1)c1ccc2ccccc2n1,"2.06 µM [rising, partial curve, poor fit]",–

# Reprinted at random: 3 records from the list, in no set order.
SMILES,AC50 [1],AC50 [2]
O=C1CC(c2ccc(F)cc2)Cc2nc(NCC3CCCO3)ncc21 (stereo not drawn),"4.47 µM [rising, full curve, poor fit]",–
COc1ccc(CNCc2c(O)c(Cl)cc3c(C)c(C)c(=O)oc23)c(OC)c1,"0.447 µM [rising, full curve, poor fit]",–
CCOc1cc(/C=C/C(=O)c2ccc(OC)c(CN3CCOCC3)c2)cc(Br)c1O,"35.5 µM [falling, single point]",–

# The results go on:

SMILES,AC50 [1],AC50 [2]
C[C@]12c3[nH]c4ccc(Cl)cc4c3CCN1C(=O)[C@@H](CC(=O)NCC13CC4CC(CC(C4)C1)C3)C[C@@H]2C(=O)N1CCOCC1,"18.4 µM [falling, single point]","29.1 µM [rising, single point]"
CCOc1ccc2nnc(-c3ccc(Br)cc3)n2n1,"9.2 µM [rising, partial curve]",–
COc1ccc(C(=O)Nc2ccc3c(c2)C(=O)NC3=O)cc1,"1 µM [falling, full curve, poor fit]",–
CC1CCN(CCc2nc3cc(NS(=O)(=O)c4ccccc4)ccc3n2C)CC1,"35.5 µM [falling, single point]",–
O=C(N/N=C/c1ccncc1)c1cc2ccccc2cc1O,"17.8 µM [falling, single point]",–
Cc1nc2sc3c(c2c(=O)[nH]1)CCCC3,"35.5 µM [rising, single point]",–
COc1cccc(C(=O)n2cnnc2N)c1OC,"3.26 µM [rising, partial curve, poor fit]",–
CC(=O)N(CCS(=O)(=O)c1ccc(Cl)cc1)Cc1cccs1,"6.31 µM [rising, single point]",–
COc1ccc(/C=N/NC(=O)c2ccc(NC(C)=O)cc2)cc1COc1ccc(F)cc1F,"4.47 µM [rising, full curve]",–
CCOC(=O)/C=C1\Nc2ccccc2OC1=O,"13 µM [falling, partial curve]",–
CCOCCCNCc1ccc(OCc2ccccc2C)c(OC)c1,"25.1 µM [falling, single point]",–
Cc1cc(/C=C(\C#N)c2nc3ccccc3[nH]2)c(C)n1C,"0.13 µM [rising, full curve, poor fit]",–
CC(=O)/C(=C/Nc1ccc(Oc2ccccc2)cc1)c1ccccc1,"29.1 µM [rising, single point]","25.9 µM [falling, partial curve, poor fit]"
Cc1cccc(S(=O)(=O)N2CN(Cc3ccco3)c3nc4ccccc4nc32)c1,"22.4 µM [falling, partial curve, poor fit]",–
O=C(NCCC1=CCCCC1)C(=O)NCC1OCCCN1S(=O)(=O)c1cc(F)ccc1F (stereo not drawn),"5.01 µM [rising, single point]",–
COc1cc(/C=C(/C#N)c2ccc(F)cc2)ccc1OCc1ccc(C(=O)O)o1,"16.4 µM [falling, single point]",–
Cc1ccc(-c2noc(CN(C(=O)Cc3ccccc3)C(C)C)n2)cc1,"16.4 µM [rising, single point]",–
Brc1cc2c(cc1-c1nc3ccccc3s1)OCO2,"35.5 µM [rising, single point]",–
Cc1[nH]nc2c1C(c1ccoc1)C(C#N)=C(N)O2 (stereo not drawn),"35.5 µM [falling, single point]",–
NS(=O)(=O)c1cc(C(=O)OCC(=O)N2CCc3ccccc3C2)ccc1Cl,"14.6 µM [rising, partial curve]","16.4 µM [falling, partial curve, poor fit]"
CSc1cccc(NC(=O)CC2Oc3ccccc3NC2=O)c1 (stereo not drawn),"12.6 µM [rising, partial curve, poor fit]",–
